The other results are listed elsewhere or left out.
Molecular target: OsWRKY34 (Oryza sativa, UniProt Q0JBA9 1-250)
Assay: protein-binding microarray (RPBM); PBS, 2% BSA, 51.3 ng/ul salmon testes DNA, 50 uM zinc acetate, 200 nM TF, 25 C, 1 h; high values mean tight binding
Details: protein: recombinant; tags: N-terminal polyhistidine and DsRed monomer fusion (pET32a); label: CyDye5-dUTP incorporated in the synthesized complementary strand; 3' TTTTT single-stranded linker to array surface; dsDNA, one strand shown
How it was run: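 For the binding signal, per-feature fluorescence intensity was read in arbitrary units on an Axon 4000B scanner. Before scanning, a 2% BSA-blocked custom Agilent array made double-stranded with Cy5-dUTP was washed after 1 h at 25 °C with 200 nM protein and 50 µM zinc acetate. The proteins were Ni–NTA-purified transcription factors with N-terminal polyhistidine and DsRed fusions, expressed in E. coli BL21-CodonPlus.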

By UniProt entry, the sequences of proteins in these tests, tags left out.
UniProt Q0JBA9, entry or part of it: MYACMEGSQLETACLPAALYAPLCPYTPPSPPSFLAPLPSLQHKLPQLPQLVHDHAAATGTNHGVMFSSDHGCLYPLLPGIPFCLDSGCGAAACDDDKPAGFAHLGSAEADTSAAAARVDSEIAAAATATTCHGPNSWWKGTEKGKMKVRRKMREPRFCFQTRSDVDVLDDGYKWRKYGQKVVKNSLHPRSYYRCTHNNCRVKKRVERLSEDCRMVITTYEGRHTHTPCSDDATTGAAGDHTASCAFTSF

Row | Sequence | binding signal
1 | GGCCGGATTCTTTGGTGTTTTCTGAACCTTCTTTACTTGTCGGAGTCACCTAGTGCAG | 11700 fluorescence intensity (a.u.)
2 | CGAGTCCAGCACAGTCGACTGCCACCACCACCGCTGCCGCCGGAGTCACCTAGTGCAG | 8890 fluorescence intensity (a.u.)
3 | CTTCTTTTCACAGTGTTGCTGCTCTCTCTTCTCAACTATGCGGAGTCACCTAGTGCAG | 10900 fluorescence intensity (a.u.)
4 | TCCCTTGTTTCTGATCTTTCTTTCTCCTTCATCAAGGCACCGGAGTCACCTAGTGCAG | 12000 fluorescence intensity (a.u.)
5 | TGTTGGTGTTGCGGGCGGCGGTGCTCGGCCGTGGTGACGACGGAGTCACCTAGTGCAG | 9440 fluorescence intensity (a.u.)
6 | GTTTTCTCTCTTGCGGTATATTATTACACACTCACACGCTCGGAGTCACCTAGTGCAG | 8690 fluorescence intensity (a.u.)
7 | TTCTATCCATCTCTCCATTCATTCATCTCTCTCCATTTCCCGGAGTCACCTAGTGCAG | 9490 fluorescence intensity (a.u.)
8 | AACATGCATCACTCCATTTACACTTTTTACACTTTTATCACGGAGTCACCTAGTGCAG | 12600 fluorescence intensity (a.u.)
9 | GATTAGTGTAATACAGGCAACATTCTCATTCTCATTCTCACGGAGTCACCTAGTGCAG | 8100 fluorescence intensity (a.u.)
10 | TGGATAAATGTATTGTTGTATGCTGAATTTCTGGTTTGATCGGAGTCACCTAGTGCAG | 9720 fluorescence intensity (a.u.)
11 | CACTCACGCATCTGCCCGAACTTGATCCATCCACAGCAATCGGAGTCACCTAGTGCAG | 8650 fluorescence intensity (a.u.)
12 | CTCACCTCGCCGTGCCTCCTCGACGCCATCTTCCGCCGTTCGGAGTCACCTAGTGCAG | 9500 fluorescence intensity (a.u.)
13 | TTCCCGTGTCTTATCCACTCCCAACGTTCCATTCTGTGGACGGAGTCACCTAGTGCAG | 8510 fluorescence intensity (a.u.)
14 | TTTTTCCTTTCGTCACATTAATTTCTCGTTCGTATGTCCGCGGAGTCACCTAGTGCAG | 11900 fluorescence intensity (a.u.)
15 | TTCCCACAGCGAACGTGATGCCTCGTTTCAAAGCTGTTTTCGGAGTCACCTAGTGCAG | 8150 fluorescence intensity (a.u.)
16 | GCTCTCTTGGCCTTAGGTTATCATGGTACGTGTTTCCCTACGGAGTCACCTAGTGCAG | 9610 fluorescence intensity (a.u.)
17 | ATCTCCTCGCTTTTTGCTTCGTTCTCCGCTCCGGTGACCCCGGAGTCACCTAGTGCAG | 9660 fluorescence intensity (a.u.)
18 | CCTTCACCTTTCTTCTCCTCCATCCATCCAGAAAAAAAATCGGAGTCACCTAGTGCAG | 8590 fluorescence intensity (a.u.)
19 | ATAACGCTTTCGTCTCTCCTGACAGGATCCGGTGACACCGCGGAGTCACCTAGTGCAG | 8250 fluorescence intensity (a.u.)
20 | ACACACTACTACTACTCTTCTCCCTCTCCATCTCTTCCCTCGGAGTCACCTAGTGCAG | 8320 fluorescence intensity (a.u.)
21 | TTGTATAGTTAAGGCACCCCGTATATTTGGTTTTGTGGTTCGGAGTCACCTAGTGCAG | 10400 fluorescence intensity (a.u.)
22 | GCATCAATTGGTTTTGGCCTACTAAGTCATGTTTACAACCCGGAGTCACCTAGTGCAG | 8280 fluorescence intensity (a.u.)
23 | CCTTGGTTCTCTTTCGTTGCCTGTTCTGTTCTTCCAACGCCGGAGTCACCTAGTGCAG | 11800 fluorescence intensity (a.u.)
24 | TGTTATTACAATATAAATGGTGCACGTTGCTCTTGTTTACCGGAGTCACCTAGTGCAG | 8780 fluorescence intensity (a.u.)
25 | GACCATCCAATCGTGACTCAACCTACTAACAACTGATTCCCGGAGTCACCTAGTGCAG | 9380 fluorescence intensity (a.u.)
26 | CGAATCAACCAACCAACACCTGCCTGATTCATCTTCTCGACGGAGTCACCTAGTGCAG | 8080 fluorescence intensity (a.u.)
27 | CTCGCCGCCGGCCTCCTCCACCACCACCGACGACTCCGACCGGAGTCACCTAGTGCAG | 8430 fluorescence intensity (a.u.)

Row | Sequence | binding signal
28 | CCGCGACTACCATTTCGACTGATAGATCACCCACCGGATCCGGAGTCACCTAGTGCAG | 9150 fluorescence intensity (a.u.)
29 | GGGTTTACATACGGTTTTGGTTTGAATCTGTCGCAGGTCGCGGAGTCACCTAGTGCAG | 8220 fluorescence intensity (a.u.)
30 | CAGTCGTCGTTGCGTTGCTTCTGCTGCACTTCTCTCTCTCCGGAGTCACCTAGTGCAG | 10800 fluorescence intensity (a.u.)
31 | GTGTGATTTTTTTTTGCTCTAATTAATGTGATAAATTTTCCGGAGTCACCTAGTGCAG | 10600 fluorescence intensity (a.u.)
32 | ATTTAGGGGTGTGTGTGTGGTGTATCTTCATTCTTCAATGCGGAGTCACCTAGTGCAG | 10200 fluorescence intensity (a.u.)
33 | TCACTCTTTTTCTTACCTGCTCGATCGTAGTTATTTAATTCGGAGTCACCTAGTGCAG | 11900 fluorescence intensity (a.u.)
34 | CCTGACCATCCATCCGTTCCTCCGATCAGTTCCAACTTCCCGGAGTCACCTAGTGCAG | 8640 fluorescence intensity (a.u.)
35 | GATTCCTGCCTTGATTAGCATGTCACACATCGATGTCAGCCGGAGTCACCTAGTGCAG | 8860 fluorescence intensity (a.u.)
36 | GCCAGCAATTTTGCTCTTATTATCTTTTCACCTGCCGTGACGGAGTCACCTAGTGCAG | 10300 fluorescence intensity (a.u.)
37 | TTCCCTGCTCCTGTCTCCACCGTTCTACTCGCCTCGAAAGCGGAGTCACCTAGTGCAG | 10600 fluorescence intensity (a.u.)
38 | GGACGGATATGTTGTGTGTGAAGCTCTGGTTGGCCATTTGCGGAGTCACCTAGTGCAG | 8670 fluorescence intensity (a.u.)
39 | CCACTTGCAGCGTTCGAACCACCGAGGTTGACCAGGCCCCCGGAGTCACCTAGTGCAG | 9670 fluorescence intensity (a.u.)
40 | CCTATTCAACGATCTCCTCCGATTATCCAAATCAACATAACGGAGTCACCTAGTGCAG | 8410 fluorescence intensity (a.u.)
41 | ATTTTGGGACAGAGGTAGCAGTGAACTACACGTACCTTGTCGGAGTCACCTAGTGCAG | 21500 fluorescence intensity (a.u.)
42 | TCTATGGTAGTCCAAAGAGTCCACAGCCCACACTCACTCTCGGAGTCACCTAGTGCAG | 8160 fluorescence intensity (a.u.)
43 | TGGGCTAGAGCTAGGGTTTTGTTTGGTGGCTAGGGTTCTTCGGAGTCACCTAGTGCAG | 8410 fluorescence intensity (a.u.)
44 | ACTTTCGTCTGTTTGCTAGTGTGGGTATTGATTTGCTCCACGGAGTCACCTAGTGCAG | 12000 fluorescence intensity (a.u.)
45 | GCTGTTTATTTATATTTATTTATTGTGTATTTGATATCCACGGAGTCACCTAGTGCAG | 11200 fluorescence intensity (a.u.)
46 | GATCTCTATGCATTTTTCACTTGTGTCCACACAAATACTTCGGAGTCACCTAGTGCAG | 8730 fluorescence intensity (a.u.)
47 | GGGGTGAGTTGAGAACATAAGACAGATGCTTTCCGAAAGACGGAGTCACCTAGTGCAG | 8730 fluorescence intensity (a.u.)
48 | TAATCACTCATACACGCGTCTGTGTCATGGCTGATGTCAGCGGAGTCACCTAGTGCAG | 8270 fluorescence intensity (a.u.)
49 | CTCCGCTGGACCAACTACCTCCGCCCCGACATCCGCCGCGCGGAGTCACCTAGTGCAG | 10000 fluorescence intensity (a.u.)
50 | CCATTTCGCATCTCTCTCAGCCTCACCGTCGTCGCCTCCCCGGAGTCACCTAGTGCAG | 8840 fluorescence intensity (a.u.)
51 | TCTATGTAGGGTTTATCAATACTCGGCATATGATTCATACCGGAGTCACCTAGTGCAG | 8710 fluorescence intensity (a.u.)
52 | GCGGCGGGTGCGGCATGTGGAACGGGTGGGCGTCGGGCGCCGGAGTCACCTAGTGCAG | 8110 fluorescence intensity (a.u.)
53 | TTTACCGATATTTCTAATATCATTTCCATTTTCGGCTTATCGGAGTCACCTAGTGCAG | 10000 fluorescence intensity (a.u.)
54 | TCCGGCGCCTTACTGGTCATCACCAACTCACTGCTCCTCTCGGAGTCACCTAGTGCAG | 8670 fluorescence intensity (a.u.)

A different layout for part of the listing above:
Row	Sequence	binding signal
32	ATTTAGGGGTGTGTGTGTGGTGTATCTTCATTCTTCAATGCGGAGTCACCTAGTGCAG	10200 fluorescence intensity (a.u.)
33	TCACTCTTTTTCTTACCTGCTCGATCGTAGTTATTTAATTCGGAGTCACCTAGTGCAG	11900 fluorescence intensity (a.u.)
34	CCTGACCATCCATCCGTTCCTCCGATCAGTTCCAACTTCCCGGAGTCACCTAGTGCAG	8640 fluorescence intensity (a.u.)
35	GATTCCTGCCTTGATTAGCATGTCACACATCGATGTCAGCCGGAGTCACCTAGTGCAG	8860 fluorescence intensity (a.u.)
36	GCCAGCAATTTTGCTCTTATTATCTTTTCACCTGCCGTGACGGAGTCACCTAGTGCAG	10300 fluorescence intensity (a.u.)
37	TTCCCTGCTCCTGTCTCCACCGTTCTACTCGCCTCGAAAGCGGAGTCACCTAGTGCAG	10600 fluorescence intensity (a.u.)
38	GGACGGATATGTTGTGTGTGAAGCTCTGGTTGGCCATTTGCGGAGTCACCTAGTGCAG	8670 fluorescence intensity (a.u.)
39	CCACTTGCAGCGTTCGAACCACCGAGGTTGACCAGGCCCCCGGAGTCACCTAGTGCAG	9670 fluorescence intensity (a.u.)
40	CCTATTCAACGATCTCCTCCGATTATCCAAATCAACATAACGGAGTCACCTAGTGCAG	8410 fluorescence intensity (a.u.)
41	ATTTTGGGACAGAGGTAGCAGTGAACTACACGTACCTTGTCGGAGTCACCTAGTGCAG	21500 fluorescence intensity (a.u.)
42	TCTATGGTAGTCCAAAGAGTCCACAGCCCACACTCACTCTCGGAGTCACCTAGTGCAG	8160 fluorescence intensity (a.u.)
43	TGGGCTAGAGCTAGGGTTTTGTTTGGTGGCTAGGGTTCTTCGGAGTCACCTAGTGCAG	8410 fluorescence intensity (a.u.)

From publication PMC7819943, “Rice protein-binding microarrays: a tool to detect cis-acting elements near promoter regions in rice”
